From the supplement of paper PMC12542422
Structures can show the parent of a compound that is named as a salt. ± gives the standard deviation of the averaged measurements. This is one part of the list. These are raw signals, not scaled to a control.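 Across three biological replicates, HeLa cells were imaged for ribosome assembly using ENP1 staining (export block present or absent) or inducible tagged ribosomal protein reporters. Machine learning classified each cell's signal localization relative to DMSO controls. Hits exceeded the DMSO false-positive mean by five standard deviations and were then visually confirmed.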

tested on: HeLa K (ENP1 immunofluorescence, no LMB); assay: fraction of cells with nucleolar or nucleolar/nucleoplasmic ENP1 signal (MainHitrate); higher = more cells with nucleolar/nuclear readout signal (for ENP1 -LMB: less RNAPI inhibition; for +LMB ENP1 and RP reporters: stronger nuclear/nucleolar retention, i.e. ribosome biogenesis defect); conditions: concentration: 1 µM; treatment time: 6 h; ENP1 -LMB; leptomycin B: none

Row | Structure (SMILES) | fraction
1 | COC(=O)[C@H](Cc1ccccc1)NC(=O)[C@@H](N)CC(=O)O [Aspartame] | 0.991 ± 0.016
2 | CNCCc1ccccn1 [Betahistine 2HCl] | 0.99 ± 0.018
3 | Cc1onc(-c2ccccc2Cl)c1C(=O)N[C@@H]1C(=O)N2[C@@H]1SC(C)(C)[C@@H]2C(=O)O [Cloxacillin sodium (Cloxacap)] | 0.99 ± 0.018
4 | O=C(Nc1ccc([N+](=O)[O-])cc1Cl)c1cc(Cl)ccc1O [Niclosamide (Niclocide)] | 0.968 ± 0.056
5 | CO[C@@H]1[C@@H](OC(N)=O)[C@@H](O)[C@H](Oc2ccc3c(O)c(NC(=O)c4ccc(O)c(CC=C(C)C)c4)c(=O)oc3c2C)OC1(C)C [Novobiocin sodium (Albamycin)] | 0.994 ± 0.011
6 | O=C(O)/C=C/c1ccc(Cn2ccnc2)cc1 [Ozagrel] | 0.9962 ± 0.0065
7 | CC(C)CN(C[C@@H](O)[C@H](Cc1ccccc1)NC(=O)O[C@H]1CCOC1)S(=O)(=O)c1ccc(N)cc1 [Amprenavir (Agenerase)] | 0.999 ± 0.0017
8 | CNC(=O)c1cc(Oc2ccc(NC(=O)Nc3ccc(Cl)c(C(F)(F)F)c3)cc2)ccn1 [Sorafenib (Nexavar)] | 0.9986 ± 0.0025
9 | CN(C)CCCN1c2ccccc2CCc2ccc(Cl)cc21 [Clomipramine hydrochloride (Anafranil)] | 0.992 ± 0.014
10 | CCCCCCCCCCCCCCCC[N+](C)(C)C [Cetrimonium Bromide] | 0.99 ± 0.017
11 | CCOc1nc2cccc(C(=O)OCc3oc(=O)oc3C)c2n1Cc1ccc(-c2ccccc2-c2noc(=O)[nH]2)cc1 [Azilsartan Medoxomil (TAK-491)] | 0.994 ± 0.011
12 | O=C1CCc2ccc(OCCCCN3CCN(c4cccc(Cl)c4Cl)CC3)cc2N1 [Aripiprazole (Abilify)] | 0.995 ± 0.0086
13 | Oc1ccc(/C=C/c2cc(O)cc(O)c2)cc1 [Resveratrol] | 0.9983 ± 0.0029
14 | COc1ccc(-n2nc(C(N)=O)c3c2C(=O)N(c2ccc(N4CCCCC4=O)cc2)CC3)cc1 [Apixaban] | 0.9985 ± 0.0026
15 | Nc1ccc(/N=N/c2ccccc2)c(N)n1 [Phenazopyridine HCl] | 0.985 ± 0.027
16 | N#Cc1ccc(C(c2ccc(C#N)cc2)n2cncn2)cc1 [Letrozole] | 0.9976 ± 0.0042
17 | CCN(CC)CCOc1ccc(C(=C(Cl)c2ccccc2)c2ccccc2)cc1 [Clomifene citrate (Serophene)] | 0.9959 ± 0.0071

Another view of part of the listing above.
Row	Structure (SMILES)	fraction
12	O=C1CCc2ccc(OCCCCN3CCN(c4cccc(Cl)c4Cl)CC3)cc2N1 [Aripiprazole (Abilify)]	0.995 ± 0.0086
15	Nc1ccc(/N=N/c2ccccc2)c(N)n1 [Phenazopyridine HCl]	0.985 ± 0.027
